According to article PMC12160931:
Results are given in words; binding and its absence hold for the method and conditions named. In cells and extracts the contact can be indirect. Some results given as binding are weak or reduced against the parent protein; the word gives no strength.

Amino acid sequences for entries named in this document (tags omitted). Residues count along the entry.
UniProt P17655, residues 20-700: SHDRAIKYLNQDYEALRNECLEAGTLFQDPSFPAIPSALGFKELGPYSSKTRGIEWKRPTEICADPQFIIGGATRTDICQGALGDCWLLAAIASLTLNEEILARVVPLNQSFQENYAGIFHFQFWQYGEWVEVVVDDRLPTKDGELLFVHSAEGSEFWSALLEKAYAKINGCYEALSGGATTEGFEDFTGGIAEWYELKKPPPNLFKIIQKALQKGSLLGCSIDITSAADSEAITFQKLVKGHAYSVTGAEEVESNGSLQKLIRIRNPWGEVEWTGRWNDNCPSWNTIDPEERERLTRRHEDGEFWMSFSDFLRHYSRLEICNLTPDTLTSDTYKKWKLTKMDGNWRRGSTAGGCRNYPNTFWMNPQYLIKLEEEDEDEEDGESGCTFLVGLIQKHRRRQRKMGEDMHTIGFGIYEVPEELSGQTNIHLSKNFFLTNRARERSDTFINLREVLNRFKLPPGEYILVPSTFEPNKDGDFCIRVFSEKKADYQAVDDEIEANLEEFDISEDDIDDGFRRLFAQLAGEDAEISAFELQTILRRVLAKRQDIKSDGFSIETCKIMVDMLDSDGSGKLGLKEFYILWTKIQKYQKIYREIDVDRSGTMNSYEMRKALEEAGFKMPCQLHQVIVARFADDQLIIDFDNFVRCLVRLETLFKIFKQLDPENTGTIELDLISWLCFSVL

Target: calpain-2 (CAPN2) (human (MS data aligned to the UniProt human database; cells not named)) (UniProt P17655)
Assay: co-IP; bidirectional Co-IP of CAPN2 and TRIM8 from cell lysate, SureBeads magnetic beads, Western blotting; cells not given

binding: binds
B1: tripartite motif containing 8 (TRIM8) (protein, UniProt Q9BZR9 1-551)
chain: MAENWKNCFEEELICPICLHVFVEPVQLPCKHNFCRGCIGEAWAKDSGLVRCPECNQAYNQKPGLEKNLKLTNIVEKFNALHVEKPPAALHCVFCRRGPPLPAQKVCLRCEAPCCQSHVQTHLQQPSTARGHLLVEADDVRAWSCPQHNAYRLYHCEAEQVAVCQYCCYYSGAHQGHSVCDVEIRRNEIRKMLMKQQDRLEEREQDIEDQLYKLESDKRLVEEKVNQLKEEVRLQYEKLHQLLDEDLRQTVEVLDKAQAKFCSENAAQALHLGERMQEAKKLLGSLQLLFDKTEDVSFMKNTKSVKILMDRTQTCTSSSLSPTKIGHLNSKLFLNEVAKKEKQLRKMLEGPFSTPVPFLQSVPLYPCGVSSSGAEKRKHSTAFPEASFLETSSGPVGGQYGAAGTASGEGQSGQPLGPCSSTQHLVALPGGAQPVHSSPVFPPSQYPNGSAAQQPMLPQYGGRKILVCSVDNCYCSSVANHGGHQPYPRSGHFPWTVPSQEYSHPLPPTPSVPQSLPSLAVRDWLDASQQPGHQDFYRVYGQPSTKHYVTS
